Drawing on article PMC11045800, this text covers binding for one substance.

These are yes or no findings as the source states them, for the method shown. In cells and extracts the contact can be indirect. A result given as binding can be weak or reduced; the word gives no strength. Sequences can lack the tags named with a protein.

The experiment has as its target T1, Myc-tagged recombinant PERK (mouse) (UniProt Q9Z2B5).
T1 sequence: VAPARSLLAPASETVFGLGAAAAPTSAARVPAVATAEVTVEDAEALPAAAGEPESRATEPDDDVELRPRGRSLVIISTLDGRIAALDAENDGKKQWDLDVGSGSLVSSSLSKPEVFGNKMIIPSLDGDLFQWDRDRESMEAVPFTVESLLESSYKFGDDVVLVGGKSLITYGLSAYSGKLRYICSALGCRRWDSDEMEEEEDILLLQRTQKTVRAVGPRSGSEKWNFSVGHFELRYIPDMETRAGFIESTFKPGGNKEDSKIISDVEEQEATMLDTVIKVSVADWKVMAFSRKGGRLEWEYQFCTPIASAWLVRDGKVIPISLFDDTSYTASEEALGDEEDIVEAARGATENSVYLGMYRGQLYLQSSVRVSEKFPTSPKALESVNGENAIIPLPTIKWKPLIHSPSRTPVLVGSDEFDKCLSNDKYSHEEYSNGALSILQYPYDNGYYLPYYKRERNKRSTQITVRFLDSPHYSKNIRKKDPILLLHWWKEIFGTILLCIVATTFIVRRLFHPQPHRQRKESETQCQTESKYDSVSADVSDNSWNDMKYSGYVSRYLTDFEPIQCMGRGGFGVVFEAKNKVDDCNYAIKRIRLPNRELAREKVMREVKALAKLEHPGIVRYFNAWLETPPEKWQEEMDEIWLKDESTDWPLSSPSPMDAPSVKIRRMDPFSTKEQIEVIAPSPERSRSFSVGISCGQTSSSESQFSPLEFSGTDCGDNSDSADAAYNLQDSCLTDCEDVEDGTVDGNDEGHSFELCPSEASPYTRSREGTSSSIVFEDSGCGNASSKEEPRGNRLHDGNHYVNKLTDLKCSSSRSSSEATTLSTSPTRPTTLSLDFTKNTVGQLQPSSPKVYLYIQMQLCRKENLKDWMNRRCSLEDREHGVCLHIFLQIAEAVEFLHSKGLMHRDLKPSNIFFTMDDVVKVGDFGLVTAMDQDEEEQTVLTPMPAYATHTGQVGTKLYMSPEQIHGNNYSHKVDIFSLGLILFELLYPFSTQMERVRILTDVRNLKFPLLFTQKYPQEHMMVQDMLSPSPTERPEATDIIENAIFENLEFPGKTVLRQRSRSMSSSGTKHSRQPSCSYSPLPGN
Briefly: co-IP; in vitro: HA- and Myc-tagged proteins purified from transfected HEK293T cells (eluted from anti-HA or anti-Myc beads), incubated together for 2 h, precipitated with anti-Myc beads, blot with anti-HA; both purified.

On to “HA-tagged TRIM29 C mutant (C-terminal domain of TRIM29) (domain or fragment)”, for which the binding result is “binds”.
